Measured values published in patent US8273738B2, “Imidazole derivatives” (priority 2006, dated 2012).
For at least one compound, name, drawing or mass did not settle the structure.

Tested on: rats with chronic constriction nerve injury
Experiment: Analgesic effect in rats with chronic constriction nerve injury (von Frey filament)
Type: in vivo, rat
Settings: oral, dose of 50 mg/kg or less, one hour after administration, von Frey filaments
Text: Rats with chronic constriction nerve injury were produced by partially modifying the method of Mosconi and Kruger et al. (Pain, vol. 64, pp. 37-57 (1996))
Male Crl:CD(SD) rats were used for the experiments. Under pentobarbital anesthesia, the sciatic nerve of the left hind limb of the rat was exfoliated, and the exfoliated region was wrapped with a polyethylene tube (trade name: Intramedic, size: PE-60, manufactured by Becton Dickinson and Company) of 2 mm in length. On days 14 to 21 after the surgery, the rats were placed in an acrylic connected cage with a wire mesh floor (900 mm (length)×210 mm (depth)×140 mm (height)) consisting of 4 cages connected in a row and allowed to acclimate to the environment for at least 20 minutes, and then, the pain was evaluated.
The von Frey filament (trade name: touch test sensory evaluator, Model number: model 58011, manufactured by Muromachi Kikai) was used to evaluate pain, and the results were calculated as a pain threshold. That is, by using a von Frey filament of different stimulus intensity, stimulation was given to the plantar surface of the injured side of rats with chronic constriction nerve injury, and the stimulus intensity to cause paw withdrawal response was obtained. Then, the 50% pain threshold (Paw withdrawal threshold) (g) was calculated by the up down method of Dixon [Annual Review of Pharmacology and Toxicology, vol. […]

For `CN(C)C(=O)c1cc(-c2cn(CC3(F)CCOCC3)c(C(C)(C)C)n2)cs1` [Compound 188, 4-[2-tert-Butyl-1-(4-fluorotetrahydropyran-4-ylmethyl)-1H-imidazol-4-yl]-N,N-dimethylthiophene-2-carboxamide], the “50% pain threshold (paw withdrawal threshold)” value was “significantly increased the pain threshold”.
